Taken from: PubChem BioAssay AID504774 (Drosophila RNAi Screening Center, 2011)
The screen tested about 23,000 reagents; below is an unselected part of those that have a named target and a result. 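Values are quantile-normalised luminescence on an arbitrary scale; higher means more cells surviving MMS.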 A plus sign joins genes that one reagent is predicted to hit. Further read-outs or replicates are left out here.

Screen: 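Fly genes whose loss alters survival after alkylation damage to DNA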 (primary screen)
Cell system: Drosophila Kc167 cells
Reagent: long dsRNA against Drosophila genes, about 0.25 µg dsRNA per well
Duration: about 6 days: 3 days knock-down, then 3 days with or without MMS
Conditions: methyl methanesulphonate 0.004% (w/v) for 3 days after knock-down
Measured: 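ATP-dependent luminescence as a measure of live cells in MMS-exposed wells, quantile normalised within each plate, with replicate values also given as a mean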
Scale: mean viability with MMS and viability with MMS: higher = more surviving cells after MMS

gene | dsRNA | mean viability with MMS | viability with MMS, replicate 1
Sems | DRSC11626 | 3.47e6 | 3.90e6
Psf2 | DRSC00516 | 3.81e6 | 4.49e6
park + Targ3 | DRSC11617 | 3.51e6 | 3.95e6
CG5697 | DRSC15858 | 3.49e6 | 3.94e6
CG9795 | DRSC12336 | 3.49e6 | 3.89e6
mRpS35 | DRSC08551 | 3.52e6 | 3.98e6
Cyp4ad1 | DRSC07369 | 3.65e6 | 4.06e6
ebd2 | DRSC11682 | 3.43e6 | 3.87e6
CG16739 | DRSC06621 | 3.29e6 | 3.66e6
CG30325 | DRSC05685 | 3.54e6 | 3.99e6
insc | DRSC04695 | 3.58e6 | 4.06e6
crm | DRSC18754 | 3.65e6 | 4.05e6
CG3483 | DRSC04371 | 3.70e6 | 4.12e6
Syx8 | DRSC10402 | 3.62e6 | 3.67e6
Syx8 | DRSC22498 | 3.12e6 | 3.75e6
GILT2 | DRSC14196 | 3.76e6 | 4.29e6
CG14245 | DRSC14740 | 3.49e6 | 3.87e6
CG34309 | DRSC14838 | 3.83e6 | 4.31e6
CG12795 | DRSC00354 | 3.66e6 | 4.22e6
CG32437 | DRSC11760 | 3.78e6 | 4.21e6
CG32437 | DRSC22020 | 3.85e6 | 4.30e6
Rh2 | DRSC16821 | 3.44e6 | 4.03e6
Or33c | DRSC03388 | 3.53e6 | 4.03e6
ND-B14.5AL | DRSC11795 | 3.37e6 | 3.89e6
Septin5 | DRSC06843 | 3.51e6 | 4.05e6
CG12477 | DRSC09886 | 3.34e6 | 3.75e6
Pef | DRSC06695 | 3.59e6 | 4.08e6
BG642163 | DRSC00342 | 3.60e6 | 4.02e6
BG642163 | DRSC00343 | 3.83e6 | 4.05e6
CG14095 | DRSC10098 | 3.53e6 | 3.98e6
Wdr62 | DRSC00081 | 3.45e6 | 3.89e6
Wdr62 | DRSC00082 | 3.52e6 | 3.94e6
Wdr62 | DRSC00701 | 2.96e6 | 3.28e6
Wdr62 | DRSC21913 | 3.66e6 | 4.04e6
GstE8 | DRSC06678 | 3.55e6 | 4.03e6
RhoGAP15B | DRSC19924 | 3.72e6 | 4.27e6
RhoGAP15B | DRSC19925 | 3.48e6 | 3.99e6
MtnC | DRSC22879 | 3.44e6 | 3.89e6
CG8188 | DRSC20090 | 3.65e6 | 4.10e6
Rpn9 | DRSC16840 | 3.89e6 | 4.24e6
CG42579 | DRSC20391 | 3.53e6 | 4.04e6
CG11170 | DRSC04090 | 3.61e6 | 4.10e6
CG3199 | DRSC15467 | 3.41e6 | 3.85e6
Pgant35A | DRSC03557 | 3.48e6 | 4.12e6
Ald2 | DRSC15799 | 3.19e6 | 3.65e6
side-VIII | DRSC05880 | 3.50e6 | 3.81e6
side-VIII | DRSC05883 | 2.94e6 | 3.52e6
side-VIII | DRSC06157 | 3.36e6 | 3.84e6
side-VIII | DRSC23187 | 3.60e6 | 4.05e6
PolE4 | DRSC04105 | 3.52e6 | 3.99e6
DCTN4-p62 | DRSC06101 | 3.41e6 | 3.93e6
CG15927 | DRSC19742 | 3.46e6 | 3.84e6
CG12911 | DRSC06226 | 3.59e6 | 4.08e6
SF2 | DRSC16845 | 2.81e6 | 3.53e6
CG31882 | DRSC01084 | 3.62e6 | 4.17e6
Dbp80 | DRSC22034 | 3.70e6 | 4.16e6
pns | DRSC08598 | 3.56e6 | 4.02e6
Rrp40 | DRSC00074 | 3.47e6 | 3.89e6
CG2260 | DRSC18223 | 3.46e6 | 3.72e6
CG5071 | DRSC15710 | 3.52e6 | 3.95e6
CG5071 | DRSC22570 | 3.71e6 | 4.12e6
CG3078 | DRSC18531 | 3.34e6 | 3.83e6
yip3 | DRSC04724 | 3.34e6 | 3.83e6
Elp2 | DRSC06095 | 3.33e6 | 3.75e6
DAT | DRSC07394 | 3.68e6 | 4.12e6
AP-1-2beta | DRSC19336 | 3.43e6 | 3.95e6
CG3726 | DRSC18320 | 3.55e6 | 3.96e6
CG3726 | DRSC23143 | 3.49e6 | 4.05e6

Sorted by “mean viability with MMS” (highest first): some entries from above.
gene | dsRNA | mean viability with MMS | viability with MMS, replicate 1
Or33c | DRSC03388 | 3.53e6 | 4.03e6
Rh2 | DRSC16821 | 3.44e6 | 4.03e6
ND-B14.5AL | DRSC11795 | 3.37e6 | 3.89e6
